PubChem BioAssay AID1671190 (National Center for Advancing Translational Sciences (NCATS), 2021)
Several values for one entry are separate records, joined by “and”; a condition that tells them apart may be missing. Equal values may be shown once. Screen size: about 580,000 compounds; about 6,100 (1.1%) were called active. Inconclusive means that the source gave no clear call. Such entries were picked first, then a sample of the others. The call rests on the fitted dose curve; in most records, active means well fitted inhibition curve with a large enough effect; inconclusive means small, poorly fitted or top-dose-only effect, or another doubt; inactive means no such curve, though single readings can be large or run the other way. A potency beside an inconclusive call is a rough fit, not a confirmed value.

Sequences of proteins named here, by UniProt entry; tags and fusion partners are left off.
UniProt P18054, whole entry, looked up: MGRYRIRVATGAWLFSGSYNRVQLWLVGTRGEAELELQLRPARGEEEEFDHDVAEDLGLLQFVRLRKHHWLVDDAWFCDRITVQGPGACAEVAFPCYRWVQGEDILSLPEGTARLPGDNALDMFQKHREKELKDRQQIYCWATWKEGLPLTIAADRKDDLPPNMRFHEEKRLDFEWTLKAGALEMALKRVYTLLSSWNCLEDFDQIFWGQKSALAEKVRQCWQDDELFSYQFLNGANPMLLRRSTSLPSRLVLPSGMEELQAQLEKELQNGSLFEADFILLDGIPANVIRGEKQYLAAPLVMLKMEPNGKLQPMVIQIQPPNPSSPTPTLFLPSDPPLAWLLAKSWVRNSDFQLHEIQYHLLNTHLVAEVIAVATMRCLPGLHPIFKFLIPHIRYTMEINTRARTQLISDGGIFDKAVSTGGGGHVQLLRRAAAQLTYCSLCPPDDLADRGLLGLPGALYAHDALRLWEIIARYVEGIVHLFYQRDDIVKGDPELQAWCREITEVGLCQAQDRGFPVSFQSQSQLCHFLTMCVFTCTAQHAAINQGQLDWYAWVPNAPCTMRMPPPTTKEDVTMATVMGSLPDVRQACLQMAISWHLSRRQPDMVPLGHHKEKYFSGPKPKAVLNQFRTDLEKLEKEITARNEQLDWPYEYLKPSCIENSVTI

molecular target: Polyunsaturated fatty acid lipoxygenase ALOX12 (Homo sapiens) (UniProt P18054); assay: Primary qHTS assay for inhibitors of human arachidonate 12S-lipoxygenase (ALOX12): Round 2; conditions: purified 12hLO, xylenol orange hydroperoxide absorbance; activity change, negative = inhibition: at 108 µM (top of the series) unless noted
Summary of the method: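 Hydroperoxide product was detected by ferrous iron/xylenol orange as the 573 to 405 nm absorbance ratio. Arachidonic acid at 40 uM (final) was turned over for 30 min at room temperature by 150 nM human 12hLO, pH 7.0 Hepes buffer, after 15 min compound preincubation.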
On the % scale 0 is the no-effect control and ±100 the full control effect; potency means the concentration at half of the fitted maximal effect.

**Q.** How did the Potency turn out when `COc1ccc(N/C=C/C(=O)c2sc(-c3ccccc3)nc2C)cc1` was run?
**A.** inactive

**Q.** `COC(=O)c1cccc(S(=O)(=O)N2CCC(NC(=O)NC34CC5CC(CC(C5)C3)C4)CC2)c1` was tested. Which Potency did it give?
**A.** inconclusive: 1.12 µM [inhibitor, full curve, poor fit]

**Q.** For `COc1ccc(OC)c(C2=Nn3c(nnc3-c3cc(OC)c(OC)c(OC)c3)SC2)c1`, which Potency is on record?
**A.** inactive

**Q.** With `COc1ccc2[nH]c(=O)c(CN(Cc3ccco3)Cc3nnnn3Cc3ccccc3)cc2c1` as the molecule, how does the Potency read?
**A.** inactive

**Q.** For `CCCCSc1nc2c(c(=O)[nH]c(=O)n2C)n1CCc1ccccc1`, which Potency is on record?
**A.** inactive

**Q.** Which Potency does the source give for `Cc1ccc(CN2CCN(/N=C\c3cccc([N+](=O)[O-])c3)CC2)cc1` here?
**A.** inactive

**Q.** `Cn1c(-c2cccnc2)cc2cnc(Nc3ccc4c(c3)OCO4)cc21` was tested. Which Potency did it give?
**A.** inconclusive: 50.1 µM [inhibitor, partial curve, poor fit]

**Q.** Which Potency does the source give for `COc1cccc(OC2(C)CCN(Cc3cccn3-c3nccs3)C2)c1` (centres undefined) here?
**A.** inconclusive: 89.1 µM [inhibitor, single point]

**Q.** For `COC(=O)C1=CN(Cc2cccs2)C=C(C(=O)OC)C1c1ccc(OC)cc1OC`, which Potency is on record?
**A.** inconclusive: 0.224 µM [inhibitor, full curve, poor fit]

**Q.** How did the Potency turn out when `Cc1cccc(C(=O)c2c(C)c(CCC#N)n3ccccc23)c1` was run?
**A.** inconclusive: 56.2 µM [inhibitor, partial curve, poor fit]

**Q.** Which Potency does the source give for `O=C(O)c1ccc(CN(Cc2ccccc2)S(=O)(=O)c2ccc(Cl)cc2)cc1` here?
**A.** inactive

**Q.** Which Potency does the source give for `O=C([C@@H]1C[C@H](Oc2cccnc2)CN1C(=O)Cc1cccc(F)c1)N1CCOCC1` here?
**A.** inconclusive: 17.8 µM [inhibitor, full curve]

**Q.** For `S=C(NCc1ccco1)Nc1ccc(Cl)cc1Cl`, which Potency is on record?
**A.** inconclusive: 50.1 µM [inhibitor, partial curve, poor fit]

**Q.** With `CCOC(=O)C1CCCN(c2c(NCCCN(C)c3ccccc3)c(=O)c2=O)C1` (centres undefined) as the molecule, how does the Potency read?
**A.** inconclusive: 100 µM [inhibitor, single point]

**Q.** `O=C(Cc1ccc(NC(=O)C2CCCN(C(=O)C3CCCCC3)C2)cc1)Nc1cccc(C(=O)N2CCCCC2)c1` (centres undefined) was tested. Which Potency did it give?
**A.** inconclusive: 141 µM [inhibitor, single point]

**Q.** How did the Potency turn out when `Cc1ccc2cc(CCNC(=O)c3cccs3)c(=O)[nH]c2c1` was run?
**A.** inactive

**Q.** For `C[C@@H]1CN([C@H](C)CO)C(=O)c2cc(NC(=O)Nc3ccc(F)cc3)ccc2O[C@@H](C)CCCCO[C@@H]1CN(C)C(=O)CCCN(C)C`, which Potency is on record?
**A.** inconclusive: 28.2 µM [inhibitor, partial curve, poor fit]

**Q.** `N#Cc1ccc(NC(=O)N2CCN(Cc3nc(-c4ccc(Cl)cc4)no3)CC2)cc1` was tested. Which Potency did it give?
**A.** inconclusive: 0.282 µM [inhibitor, full curve, poor fit]

**Q.** With `O=C1CC(c2c[nH]c3ccccc23)c2c(c3ccccc3[nH]c2=O)O1` (centres undefined) as the molecule, how does the Potency read?
**A.** inconclusive: 44.7 µM [inhibitor, partial curve, poor fit]

**Q.** Which Potency does the source give for `O=C(CNC(=O)c1ccccc1Cl)NCC(c1cccs1)N1CCOCC1` (centres undefined) here?
**A.** inactive

**Q.** With `Cc1cccc2c1-c1sc(C(=O)NCc3ccc(Cl)cc3)cc1CO2` as the molecule, how does the Potency read?
**A.** inactive

**Q.** Which Potency does the source give for `CCCCN(C(=O)c1cc(-c2ccco2)nc2ccccc12)c1c(N)n(CCC)c(=O)[nH]c1=O` here?
**A.** inconclusive: 35.5 µM [inhibitor, partial curve, poor fit]

**Q.** For `NS(=O)(=O)c1ccc(N/N=C2/CCc3ccccc32)c([N+](=O)[O-])c1`, which Potency is on record?
**A.** inconclusive: 3.16 µM [inhibitor, full curve, poor fit]

**Q.** With `Cn1c(=O)c2c(ncn2CC(=O)Nc2ccc(N3CCCCC3)cc2)n(C)c1=O` as the molecule, how does the Potency read?
**A.** inconclusive: 158 µM [inhibitor, partial curve, poor fit]

**Q.** How did the Potency turn out when `C/C(=N/NS(=O)(=O)c1ccc(C)cc1C)c1c[nH]c2ccccc12` was run?
**A.** inconclusive: 100 µM [inhibitor, single point]

**Q.** For `Cc1ccc(-c2nc(S(=O)(=O)c3ccc(C)cc3)c(SCC(=O)Nc3ccc(F)cc3)o2)cc1`, which Potency is on record?
**A.** inconclusive: 141 µM [inhibitor, single point]

**Q.** How did the Potency turn out when `Cc1c(C(=O)C(=O)Nc2ccc(C(C)C)cc2)c2ccccc2n1C` was run?
**A.** inconclusive: 50.1 µM [inhibitor, partial curve, poor fit]

**Q.** `CCc1nnc(SCC(=O)Nc2nccs2)n1CC` was tested. Which Potency did it give?
**A.** inconclusive: 50.1 µM [inhibitor, partial curve, poor fit]

**Q.** `CC/C(=N\Nc1ccnc2cc(Cl)ccc12)c1ccc(O)cc1` was tested. Which Potency did it give?
**A.** inconclusive: 44.7 µM [inhibitor, partial curve, poor fit]

**Q.** `COc1ccc(-c2cn3cccnc3n2)cc1NC(=O)CC(C)C` was tested. Which Potency did it give?
**A.** inactive

**Q.** `CCO[C@@H]1OC(C(=O)O)=C[C@H](C2CCCCC2)[C@H]1CCCO` was tested. Which Potency did it give?
**A.** inconclusive: 89.1 µM [inhibitor, partial curve, poor fit]

**Q.** `CN1CCN(C(=O)CCCC(=O)O)CC1` was tested. Which Potency did it give?
**A.** inactive

**Q.** With `CCCC1C(c2ccc(OC)cc2)C(C#N)(C#N)C2(C#N)CC1(N)NC2=O` (centres undefined) as the molecule, how does the Potency read?
**A.** inconclusive: 44.7 µM [inhibitor, partial curve, poor fit]

**Q.** For `COc1cccc([S+](=O)([O-])N2CCC3(Cc4ccccc4NC3=O)C2)c1` (centres undefined), which Potency is on record?
**A.** inconclusive: 8.91 µM [inhibitor, full curve]

**Q.** Which Potency does the source give for `COc1ccccc1CNc1nc(Nc2ccccc2-n2cccn2)c2sccc2n1` here?
**A.** inconclusive: 50.1 µM [inhibitor, partial curve, poor fit]

**Q.** How did the Potency turn out when `N#Cc1ccc2sn(-c3ccccc3)c(=O)c2c1` was run?
**A.** active: 0.355 µM

**Q.** For `CC(C)c1ccc(C2CC(=O)NC3=C2C(=O)CC(C)(C)C3)cc1` (centres undefined), which Potency is on record?
**A.** inconclusive: 5.01 µM [inhibitor, full curve, poor fit]

**Q.** How did the Potency turn out when `Cc1cc(N2CCCCCC2)n2nc(-c3ccccc3)c(C)c2n1` was run?
**A.** inactive

**Q.** How did the Potency turn out when `COCC1CCCCN1C(=O)c1ccc2nc(Cc3ccc(OC)c(OC)c3)oc2c1` (centres undefined) was run?
**A.** inconclusive: 39.8 µM [inhibitor, partial curve, poor fit]

**Q.** For `Cc1cccc(NC(=O)CSc2nc(=O)n(Cc3ccco3)c3c2CCC3)c1C`, which activity change, negative = inhibition is on record?
**A.** inconclusive: -38.9% [inhibitor]

**Q.** With `N#Cc1nc(COc2cccc(Cl)c2)oc1N1CCCC1` as the molecule, how does the Potency read?
**A.** inconclusive: 39.8 µM [inhibitor, partial curve, poor fit] and inconclusive: 50.1 µM [inhibitor, partial curve, poor fit]

**Q.** Which Potency does the source give for `O=[N+]([O-])c1ccc2[nH]c3ccccc3c2c1` here?
**A.** inconclusive: 39.8 µM [inhibitor, partial curve, poor fit]

**Q.** Which Potency does the source give for `Cc1[nH]n(-c2nc3ccccc3[nH]2)c(=O)c1CCc1ccccc1` here?
**A.** inactive

**Q.** For `COc1ccc(C(=O)N2CCCCC2c2cc(C(=O)NCc3ccc(Cl)c(Cl)c3)no2)cc1` (centres undefined), which Potency is on record?
**A.** inconclusive: 126 µM [inhibitor, single point]

**Q.** Which Potency does the source give for `O=C(NC(=S)NCc1ccccc1)c1ccc(Br)o1` here?
**A.** inconclusive: 31.6 µM [inhibitor, partial curve, poor fit]

**Q.** For `O=C(NCc1ccccc1OC(F)F)c1ccc(-n2cnnn2)cc1`, which Potency is on record?
**A.** inactive

**Q.** How did the Potency turn out when `CC1(C)Cc2c(C#N)c(NCC3CCCO3)nc(-c3ccco3)c2CO1` (centres undefined) was run?
**A.** inactive

**Q.** For `CCOC(=O)C(c1ccccc1)C(Nc1cc(C(F)(F)F)cc(C(F)(F)F)c1)c1ccccn1` (centres undefined), which Potency is on record?
**A.** inconclusive: 158 µM [inhibitor, single point]

**Q.** Which Potency does the source give for `COc1ccc(/C=C/c2cc(C(=O)O)c3ccccc3n2)cc1` here?
**A.** inconclusive: 50.1 µM [inhibitor, partial curve, poor fit]

**Q.** `CCOC(=O)N1CCc2c(sc(NC(=O)C3COc4ccccc4O3)c2C(N)=O)C1` (centres undefined) was tested. Which Potency did it give?
**A.** inconclusive: 70.8 µM [inhibitor, partial curve, poor fit]

**Q.** How did the Potency turn out when `CCN(CC(=O)Nc1c(F)cccc1F)C(=O)c1cccc(S(=O)(=O)NCc2ccccc2)c1` was run?
**A.** inactive

**Q.** For `Cc1cc(Nc2ccccc2F)n2nc(Cc3ccccc3)nc2n1`, which Potency is on record?
**A.** inactive

**Q.** `COc1ccc(-c2nc(N3CCN(C)CC3)sc2-c2ccc(OC)cc2)cc1` was tested. Which Potency did it give?
**A.** inconclusive: 112 µM [inhibitor, partial curve, poor fit]

**Q.** `Cc1ccnc2nc(C(=O)Nc3nnc(-c4ccc(Cl)cc4)o3)nn12` was tested. Which Potency did it give?
**A.** inconclusive: 50.1 µM [inhibitor, partial curve, poor fit]

**Q.** `COc1ccc(C(=O)N2CCC3(CC2)CCN(Cc2cccs2)c2ccccc2O3)cc1` was tested. Which Potency did it give?
**A.** inconclusive: 39.8 µM [inhibitor, partial curve, poor fit]

**Q.** `CCOc1ccccc1C(=O)Nc1cc(Cl)ccc1O` was tested. Which Potency did it give?
**A.** inconclusive: 44.7 µM [inhibitor, partial curve, poor fit]

**Q.** How did the Potency turn out when `CCc1ccc(Oc2c(C(F)(F)F)oc3c(CN4CCN(CC)CC4)c(O)ccc3c2=O)cc1` was run?
**A.** inconclusive: 44.7 µM [inhibitor, partial curve, poor fit]

**Q.** `CC(=O)NNC(=O)c1csc(-c2csc(C)n2)n1` was tested. Which Potency did it give?
**A.** inconclusive: 0.199 µM [inhibitor, full curve, poor fit]

**Q.** `N#Cc1c2nc3ccccc3nc2n2cc(NC(=O)c3ccc(F)cc3)ccc12` was tested. Which Potency did it give?
**A.** active: 39.8 µM

**Q.** With `O=C(Nc1ccccc1)[C@H]1O[C@H](CCN2CCOCC2)CC[C@@H]1O` as the molecule, how does the Potency read?
**A.** inactive

**Q.** With `Nc1ccc(S(=O)(=O)N2CCC(Cc3ccccc3)CC2)cc1` as the molecule, how does the Potency read?
**A.** inconclusive: 35.5 µM [inhibitor, single point]

**Q.** With `O=S(=O)(NCc1ccccc1)c1ccccc1` as the molecule, how does the Potency read?
**A.** inconclusive: 79.4 µM [inhibitor, single point]

**Q.** `COc1ccc2cc(S(=O)(=O)c3ccc(C(C)C)cc3)c(=O)oc2c1` was tested. Which Potency did it give?
**A.** inconclusive: 20 µM [inhibitor, full curve, poor fit]

**Q.** For `CCOc1cc(C2C(C#N)=C(N)SC(N)=C2C#N)ccc1OCCN1CCOCC1`, which Potency is on record?
**A.** inconclusive: 35.5 µM [inhibitor, partial curve]
